# Some of the results follow.
# The chains behind the UniProt entries cited, without tags or fusion partners. Where a name states a change or a piece, a line headed by the entry shows the natural chain unless it says otherwise.
# UniProt Q8TAC1: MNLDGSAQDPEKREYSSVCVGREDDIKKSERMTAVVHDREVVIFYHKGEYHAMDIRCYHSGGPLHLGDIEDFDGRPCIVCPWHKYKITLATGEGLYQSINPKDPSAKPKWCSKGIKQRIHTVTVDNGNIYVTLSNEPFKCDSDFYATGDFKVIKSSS
# UniProt Q14644: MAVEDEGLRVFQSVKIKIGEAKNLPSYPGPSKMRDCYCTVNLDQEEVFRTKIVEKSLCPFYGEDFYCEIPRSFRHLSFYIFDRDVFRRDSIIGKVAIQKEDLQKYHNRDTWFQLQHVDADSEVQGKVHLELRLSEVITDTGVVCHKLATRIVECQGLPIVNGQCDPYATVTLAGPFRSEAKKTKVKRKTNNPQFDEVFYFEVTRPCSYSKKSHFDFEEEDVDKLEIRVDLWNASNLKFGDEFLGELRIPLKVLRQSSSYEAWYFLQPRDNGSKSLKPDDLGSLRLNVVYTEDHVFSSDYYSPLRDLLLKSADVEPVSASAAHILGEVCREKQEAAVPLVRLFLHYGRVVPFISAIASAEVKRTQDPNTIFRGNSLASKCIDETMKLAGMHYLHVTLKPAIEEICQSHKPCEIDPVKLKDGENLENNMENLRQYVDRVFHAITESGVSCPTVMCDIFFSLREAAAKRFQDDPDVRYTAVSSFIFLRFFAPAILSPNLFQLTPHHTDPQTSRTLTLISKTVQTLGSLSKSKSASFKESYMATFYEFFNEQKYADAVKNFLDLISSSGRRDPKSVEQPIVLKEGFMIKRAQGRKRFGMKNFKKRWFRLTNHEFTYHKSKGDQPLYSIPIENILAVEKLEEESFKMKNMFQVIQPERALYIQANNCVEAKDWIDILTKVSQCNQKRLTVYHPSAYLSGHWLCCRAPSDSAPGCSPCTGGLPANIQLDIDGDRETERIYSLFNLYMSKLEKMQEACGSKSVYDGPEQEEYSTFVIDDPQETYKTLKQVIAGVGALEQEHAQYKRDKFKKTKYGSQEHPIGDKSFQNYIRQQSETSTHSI
# UniProt P22670: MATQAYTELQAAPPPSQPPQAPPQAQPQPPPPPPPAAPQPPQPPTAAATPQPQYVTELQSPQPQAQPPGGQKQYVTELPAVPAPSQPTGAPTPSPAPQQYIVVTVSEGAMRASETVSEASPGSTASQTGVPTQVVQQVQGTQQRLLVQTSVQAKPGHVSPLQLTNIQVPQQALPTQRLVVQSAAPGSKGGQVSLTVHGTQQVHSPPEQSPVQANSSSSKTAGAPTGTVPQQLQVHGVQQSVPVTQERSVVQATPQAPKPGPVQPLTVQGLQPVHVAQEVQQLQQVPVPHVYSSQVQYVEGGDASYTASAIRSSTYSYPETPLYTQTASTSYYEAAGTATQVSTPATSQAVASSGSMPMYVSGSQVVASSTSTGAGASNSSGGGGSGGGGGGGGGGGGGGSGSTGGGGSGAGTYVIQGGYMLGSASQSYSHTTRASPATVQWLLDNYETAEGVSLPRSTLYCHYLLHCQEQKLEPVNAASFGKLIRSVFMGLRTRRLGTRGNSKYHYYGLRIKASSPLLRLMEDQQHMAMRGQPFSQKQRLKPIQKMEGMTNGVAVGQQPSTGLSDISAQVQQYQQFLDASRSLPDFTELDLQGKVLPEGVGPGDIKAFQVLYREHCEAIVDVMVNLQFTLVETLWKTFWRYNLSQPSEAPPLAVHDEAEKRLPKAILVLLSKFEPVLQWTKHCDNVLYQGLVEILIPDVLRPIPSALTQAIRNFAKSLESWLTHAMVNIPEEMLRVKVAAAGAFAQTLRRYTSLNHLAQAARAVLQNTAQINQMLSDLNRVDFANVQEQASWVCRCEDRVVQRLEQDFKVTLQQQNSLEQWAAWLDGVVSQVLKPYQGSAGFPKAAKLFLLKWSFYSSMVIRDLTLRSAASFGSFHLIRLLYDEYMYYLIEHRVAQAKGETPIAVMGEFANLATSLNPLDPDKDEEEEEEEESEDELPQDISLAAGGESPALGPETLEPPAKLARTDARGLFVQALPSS
# UniProt Q8NBN7: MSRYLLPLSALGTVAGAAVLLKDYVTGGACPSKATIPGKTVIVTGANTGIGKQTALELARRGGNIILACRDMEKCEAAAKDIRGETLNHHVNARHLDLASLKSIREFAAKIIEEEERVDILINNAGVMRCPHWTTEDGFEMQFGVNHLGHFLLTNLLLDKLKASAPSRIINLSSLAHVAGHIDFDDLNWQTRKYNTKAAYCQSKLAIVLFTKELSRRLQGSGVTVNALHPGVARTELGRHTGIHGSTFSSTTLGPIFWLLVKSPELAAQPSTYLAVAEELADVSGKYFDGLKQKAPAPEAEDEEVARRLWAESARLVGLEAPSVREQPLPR
# UniProt P46063: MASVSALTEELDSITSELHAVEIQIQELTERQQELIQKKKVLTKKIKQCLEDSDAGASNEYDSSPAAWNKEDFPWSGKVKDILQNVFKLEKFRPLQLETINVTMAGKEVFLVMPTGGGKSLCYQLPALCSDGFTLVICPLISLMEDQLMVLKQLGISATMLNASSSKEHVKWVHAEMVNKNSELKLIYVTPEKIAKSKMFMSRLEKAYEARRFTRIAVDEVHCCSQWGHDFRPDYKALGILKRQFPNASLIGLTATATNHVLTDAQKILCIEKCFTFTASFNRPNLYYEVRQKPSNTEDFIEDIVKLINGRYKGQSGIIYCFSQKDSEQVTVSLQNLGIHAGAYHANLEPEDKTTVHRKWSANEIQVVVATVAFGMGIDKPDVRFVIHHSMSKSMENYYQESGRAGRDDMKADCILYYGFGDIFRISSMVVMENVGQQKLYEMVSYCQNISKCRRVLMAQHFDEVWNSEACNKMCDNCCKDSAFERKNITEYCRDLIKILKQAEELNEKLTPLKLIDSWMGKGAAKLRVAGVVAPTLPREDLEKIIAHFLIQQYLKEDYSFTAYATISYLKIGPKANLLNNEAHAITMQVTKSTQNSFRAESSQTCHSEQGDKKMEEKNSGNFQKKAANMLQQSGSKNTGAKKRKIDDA
# UniProt Q7Z6E9: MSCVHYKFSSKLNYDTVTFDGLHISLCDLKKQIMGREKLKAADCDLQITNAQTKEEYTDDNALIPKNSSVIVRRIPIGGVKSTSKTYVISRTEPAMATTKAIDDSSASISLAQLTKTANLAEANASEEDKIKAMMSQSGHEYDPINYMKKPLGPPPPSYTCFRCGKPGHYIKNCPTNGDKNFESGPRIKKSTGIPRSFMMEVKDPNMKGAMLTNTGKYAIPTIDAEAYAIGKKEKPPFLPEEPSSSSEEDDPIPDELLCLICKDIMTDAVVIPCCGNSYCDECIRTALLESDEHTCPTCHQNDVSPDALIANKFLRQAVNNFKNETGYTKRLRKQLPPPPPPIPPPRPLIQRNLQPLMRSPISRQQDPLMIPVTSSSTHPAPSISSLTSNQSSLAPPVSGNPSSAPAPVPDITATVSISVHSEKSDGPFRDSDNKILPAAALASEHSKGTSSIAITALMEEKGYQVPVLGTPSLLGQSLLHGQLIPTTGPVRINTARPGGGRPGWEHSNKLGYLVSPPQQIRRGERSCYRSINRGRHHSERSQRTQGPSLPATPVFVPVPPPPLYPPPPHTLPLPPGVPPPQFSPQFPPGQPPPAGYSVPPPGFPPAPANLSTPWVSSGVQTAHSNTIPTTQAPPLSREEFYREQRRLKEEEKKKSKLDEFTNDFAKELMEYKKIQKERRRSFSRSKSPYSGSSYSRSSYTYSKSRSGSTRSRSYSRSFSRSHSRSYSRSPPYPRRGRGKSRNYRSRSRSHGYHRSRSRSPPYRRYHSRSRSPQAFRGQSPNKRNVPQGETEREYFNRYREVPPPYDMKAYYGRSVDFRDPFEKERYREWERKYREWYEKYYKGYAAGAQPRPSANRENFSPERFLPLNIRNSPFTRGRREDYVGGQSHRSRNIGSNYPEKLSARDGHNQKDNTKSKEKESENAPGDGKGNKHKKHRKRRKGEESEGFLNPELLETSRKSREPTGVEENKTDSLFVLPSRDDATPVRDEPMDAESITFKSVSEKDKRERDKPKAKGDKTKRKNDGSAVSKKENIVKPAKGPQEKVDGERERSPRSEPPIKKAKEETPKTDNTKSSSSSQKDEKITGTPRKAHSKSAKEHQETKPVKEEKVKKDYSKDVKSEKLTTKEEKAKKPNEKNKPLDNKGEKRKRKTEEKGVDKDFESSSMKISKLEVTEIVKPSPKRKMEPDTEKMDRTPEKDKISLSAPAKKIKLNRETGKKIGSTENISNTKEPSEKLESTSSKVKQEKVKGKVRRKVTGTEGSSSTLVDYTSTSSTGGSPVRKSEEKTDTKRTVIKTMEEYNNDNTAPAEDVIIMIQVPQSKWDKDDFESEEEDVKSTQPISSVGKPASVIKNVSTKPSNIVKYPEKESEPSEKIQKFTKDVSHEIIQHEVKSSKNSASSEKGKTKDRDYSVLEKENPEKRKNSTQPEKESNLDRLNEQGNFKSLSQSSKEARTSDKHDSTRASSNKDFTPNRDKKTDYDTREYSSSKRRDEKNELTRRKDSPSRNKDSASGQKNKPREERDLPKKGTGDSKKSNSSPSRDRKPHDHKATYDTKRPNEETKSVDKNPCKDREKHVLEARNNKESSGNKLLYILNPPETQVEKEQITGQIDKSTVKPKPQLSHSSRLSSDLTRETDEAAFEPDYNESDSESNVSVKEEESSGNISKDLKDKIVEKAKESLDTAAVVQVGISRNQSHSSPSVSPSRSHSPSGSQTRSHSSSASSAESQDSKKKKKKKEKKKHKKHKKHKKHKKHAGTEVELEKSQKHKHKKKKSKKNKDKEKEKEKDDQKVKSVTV
# UniProt Q99708: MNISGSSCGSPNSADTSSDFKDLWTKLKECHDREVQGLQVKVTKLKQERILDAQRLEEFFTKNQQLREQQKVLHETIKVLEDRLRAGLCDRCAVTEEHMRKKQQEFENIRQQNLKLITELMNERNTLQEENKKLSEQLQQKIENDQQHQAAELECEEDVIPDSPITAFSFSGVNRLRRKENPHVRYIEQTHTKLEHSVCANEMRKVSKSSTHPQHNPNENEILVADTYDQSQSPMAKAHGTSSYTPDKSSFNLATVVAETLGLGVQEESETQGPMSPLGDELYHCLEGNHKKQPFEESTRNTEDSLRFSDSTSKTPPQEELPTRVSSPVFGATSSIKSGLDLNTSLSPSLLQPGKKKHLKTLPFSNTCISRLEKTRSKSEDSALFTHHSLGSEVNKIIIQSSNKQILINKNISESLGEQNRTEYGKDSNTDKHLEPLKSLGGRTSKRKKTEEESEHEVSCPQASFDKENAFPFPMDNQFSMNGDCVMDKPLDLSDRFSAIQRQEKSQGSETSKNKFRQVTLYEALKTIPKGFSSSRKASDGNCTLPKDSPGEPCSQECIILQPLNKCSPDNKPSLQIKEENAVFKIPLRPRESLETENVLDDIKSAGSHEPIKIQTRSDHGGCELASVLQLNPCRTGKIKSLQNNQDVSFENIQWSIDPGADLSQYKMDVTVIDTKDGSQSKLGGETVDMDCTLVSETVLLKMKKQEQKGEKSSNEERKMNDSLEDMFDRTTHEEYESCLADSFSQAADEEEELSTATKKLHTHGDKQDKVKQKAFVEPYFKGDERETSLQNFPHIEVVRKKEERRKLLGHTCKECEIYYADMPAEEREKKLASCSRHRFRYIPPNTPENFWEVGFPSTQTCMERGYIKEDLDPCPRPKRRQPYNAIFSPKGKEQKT
# UniProt P54136: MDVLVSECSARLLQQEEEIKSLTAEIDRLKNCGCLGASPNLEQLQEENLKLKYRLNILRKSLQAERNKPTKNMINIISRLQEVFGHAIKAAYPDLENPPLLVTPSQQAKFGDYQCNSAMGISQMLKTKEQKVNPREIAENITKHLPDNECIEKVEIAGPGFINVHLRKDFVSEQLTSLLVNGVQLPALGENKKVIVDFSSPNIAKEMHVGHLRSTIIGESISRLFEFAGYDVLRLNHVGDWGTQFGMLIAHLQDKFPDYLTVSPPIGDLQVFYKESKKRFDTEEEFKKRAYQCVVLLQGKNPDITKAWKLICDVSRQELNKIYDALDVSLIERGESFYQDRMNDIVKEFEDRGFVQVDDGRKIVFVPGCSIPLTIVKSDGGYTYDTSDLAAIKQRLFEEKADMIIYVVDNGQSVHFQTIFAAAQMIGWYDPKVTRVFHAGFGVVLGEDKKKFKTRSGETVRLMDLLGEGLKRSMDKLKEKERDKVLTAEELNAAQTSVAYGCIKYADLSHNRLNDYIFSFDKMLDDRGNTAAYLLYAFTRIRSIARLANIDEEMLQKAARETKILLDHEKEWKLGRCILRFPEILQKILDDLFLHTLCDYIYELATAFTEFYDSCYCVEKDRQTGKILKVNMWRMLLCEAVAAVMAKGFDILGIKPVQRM
# How the values were obtained:
# Test in all cases: log2 fold change, soluble protein after heating vs DMSO (PISA); higher = thermal stabilisation; K562 lysate, 10 uM; active = over 0.2 and 3.5 SD of the protein, either way, in both replicates (recomputed)
# erlotinib = compound: C#Cc1cccc(Nc2ncnc3cc(OCCOC)c(OCCOC)cc23)c1 [erlotinib]
# Outline: (§1)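 Log-two fold change in thermal stability relative to solvent controls is reported from duplicates. For each sample, crude K562 extract from dounce-homogenised pellets in PBS pH 7.4 with 1 mM MgCl2, at 1 mg/mL protein, was treated with 10 μM compound for 30 min. Aliquots heated for 3 min across 48°C-58°C were pooled, brought to 0.5% NP-40 at 4°C and cleared at 21,000xg for 90 min. The supernatant was quantified by TMTpro 16plex LC-MS/MS with channel sums equalised.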
# [1] = compound: C/C(=N\NC(=O)C1=CC(=CC=C1)S(=O)(=O)N2CCOCC2)/C3=C(C=CC(=C3)Cl)O
# Outline: as §1
# [2] = compound: C1=CC(=CC=C1C2=NC3=C(N2)C=C(C=C3)C(=O)N)OC4=CC=C(C=C4)Cl
# Outline: as §1
# [3] = compound: C1=CC2=C(C=CC(=C2)/C=C\3/C(=O)NC(=NCC4=CC=CS4)S3)N=C1
# Outline: as §1
# [4] = compound: C1=CC2=NC=CN=C2C=C1/C=C/3\C(=O)NC(=O)S3
# Outline: as §1
# [5] = compound: C1=CC=C(C=C1)C2=NC(=C(N2)C3=CC=NC=C3)C4=CC(=C(C=C4)Cl)O
# Outline: as §1
# [6] = compound: C1=CC=C2C(=C1)C3=NNC4=CC=CC(=C43)C2=O
# Outline: as §1
# [7] = compound: C1CCN(C1)C(=O)NC2=CC=CC(=C2)NC3=NC=C(C(=N3)NCCC4=CN=CN4)Br
# Outline: as §1
# [8] = compound: C1CN(CCC1(CC2=CC=C(C=C2)Cl)N)C3=NC=NC4=C3C=CN4
# Outline: as §1
# IRAK-1-4 Inhibitor I = compound: C1COCCN1CCN2C3=CC=CC=C3N=C2NC(=O)C4=CC(=CC=C4)[N+](=O)[O-] [IRAK-1-4 Inhibitor I]
# Outline: as §1
Target,log2 fold change (erlotinib),log2 fold change [1],log2 fold change [2],log2 fold change [3],log2 fold change [4],log2 fold change [5],log2 fold change [6],log2 fold change [7],log2 fold change [8],log2 fold change (IRAK-1-4 Inhibitor I)
RFESD isoform 2 (UniProt Q8TAC1),inactive: 0.074,inactive: -0.054,inactive: 0.024,inactive: -0.003,inactive: 0.02,inactive: 0.015,inactive: -0.047,inactive: -0.003,inactive: 0.082,inactive: -0.009
RCL1 (UniProt Q9Y2P8),inactive: 0,inactive: -0.034,inactive: -0.075,inactive: 0.07,inactive: 0.054,inactive: 0.021,inactive: -0.033,inactive: 0,inactive: -0.007,inactive: 0.008
RBMX (UniProt P38159),inactive: 0,inactive: 0.019,inactive: -0.056,inactive: 0.016,inactive: 0.013,inactive: 0.025,inactive: 0.018,inactive: 0.06,inactive: 0.029,inactive: -0.012
RASA3 (UniProt Q14644),inactive: 0.02,inactive: -0.089,inactive: 0.045,inactive: -0.001,inactive: 0.046,inactive: 0.021,inactive: 0.004,inactive: -0.043,inactive: -0.005,inactive: 0.02
RER1 (UniProt O15258),inactive: 0.006,inactive: 0.048,inactive: -0.041,inactive: 0.029,inactive: 0.017,inactive: -0.014,inactive: -0.052,inactive: 0,inactive: -0.043,inactive: 0.044
RAVER1 (UniProt E9PAU2),inactive: 0.034,inactive: 0.035,inactive: 0.029,inactive: -0.01,inactive: -0.003,inactive: -0.016,inactive: 0,inactive: -0.06,inactive: 0.044,inactive: 0.016
RASA1 (UniProt P20936),inactive: 0.024,inactive: 0.014,inactive: -0.007,inactive: -0.008,inactive: 0.009,inactive: -0.004,inactive: 0.01,inactive: -0.052,inactive: 0.041,inactive: 0.019
RCAN1 (UniProt P53805),inactive: 0.06,inactive: -0.206,inactive: -0.033,inactive: -0.018,inactive: -0.04,inactive: 0.008,inactive: 0.045,inactive: -0.095,inactive: 0.016,inactive: -0.024
RCSD1 (UniProt Q6JBY9),inactive: -0.005,inactive: -0.024,inactive: 0.04,inactive: -0.035,inactive: -0.024,inactive: 0.027,inactive: 0.02,inactive: -0.002,inactive: 0.002,inactive: 0.007
RBBP7 (UniProt Q16576),inactive: -0.038,inactive: -0.032,inactive: -0.021,inactive: -0.005,inactive: 0.007,inactive: -0.014,inactive: -0.008,inactive: 0.045,inactive: -0.022,inactive: -0.082
RFX1 (UniProt P22670),inactive: -0.015,inactive: -0.005,inactive: -0.028,inactive: 0.001,inactive: 0,inactive: 0.003,inactive: -0.045,inactive: 0.003,inactive: -0.01,inactive: 0.017
RFT1 (UniProt Q96AA3),inactive: -0.002,inactive: 0.096,inactive: 0.005,inactive: 0.108,inactive: 0.006,inactive: -0.018,inactive: -0.037,inactive: -0.047,inactive: 0.069,inactive: 0.001
RCC2 (UniProt Q9P258),inactive: -0.026,inactive: 0.023,inactive: -0.021,inactive: -0.019,inactive: -0.026,inactive: -0.053,inactive: 0.008,inactive: -0.003,inactive: 0.017,inactive: 0.005
RDH13 (UniProt Q8NBN7),inactive: 0.014,inactive: -0.064,inactive: -0.155,inactive: -0.074,inactive: 0.052,inactive: 0.003,inactive: 0.04,inactive: -0.052,inactive: -0.003,inactive: 0.012
RHEB (UniProt Q15382),inactive: -0.009,inactive: -0.073,inactive: -0.037,inactive: 0.035,inactive: 0,inactive: -0.012,inactive: 0.029,inactive: -0.02,inactive: -0.075,inactive: -0.032
RETREG3 (UniProt Q86VR2),inactive: 0.045,inactive: -0.009,inactive: -0.088,inactive: -0.018,inactive: 0.037,inactive: 0.007,inactive: -0.095,inactive: 0.038,inactive: 0.001,inactive: 0.091
RGPD5 (UniProt Q99666),inactive: -0.084,inactive: 0.181,inactive: -0.057,inactive: -0.035,inactive: 0.02,inactive: 0.009,inactive: 0.036,inactive: -0.091,inactive: 0.063,inactive: -0.012
RECQL (UniProt P46063),inactive: 0.001,inactive: 0.039,inactive: 0.027,inactive: 0.034,inactive: -0.009,inactive: 0.003,inactive: -0.03,inactive: -0.026,inactive: -0.012,inactive: -0.002
RBBP6 (UniProt Q7Z6E9),inactive: 0,inactive: -0.109,inactive: 0.005,inactive: -0.02,inactive: -0.016,inactive: -0.016,inactive: 0.037,inactive: 0.059,inactive: 0.006,inactive: -0.009
RETSAT (UniProt Q6NUM9),inactive: -0.092,inactive: 0.054,inactive: 0.026,inactive: 0.021,inactive: -0.092,inactive: -0.004,inactive: -0.152,inactive: -0.077,inactive: -0.052,inactive: 0.148
RBM5 (UniProt P52756),inactive: 0.095,inactive: -0.042,inactive: 0.054,inactive: 0.006,inactive: -0.006,inactive: 0.015,inactive: -0.121,inactive: -0.021,inactive: -0.001,inactive: -0.023
RECQL5 (UniProt O94762),inactive: 0.046,inactive: -0.093,inactive: 0.282,inactive: 0.083,inactive: 0.005,inactive: -0.002,inactive: 0.012,inactive: -0.062,inactive: 0.036,inactive: 0.006
RBBP8 isoform 2 (UniProt Q99708),inactive: 0.073,inactive: -0.129,inactive: -0.031,inactive: 0.074,active: 0.295,inactive: -0.004,inactive: -0.019,inactive: -0.017,inactive: -0.032,inactive: 0.033
RARS (UniProt P54136),inactive: 0.037,inactive: 0.029,inactive: -0.023,inactive: 0.023,inactive: 0.043,inactive: 0.029,inactive: -0.025,inactive: -0.005,inactive: 0.005,inactive: 0.008
RBM34 (UniProt P42696),inactive: -0.02,inactive: -0.142,inactive: -0.053,inactive: 0.044,inactive: 0.008,inactive: 0.012,inactive: 0.016,inactive: -0.055,inactive: 0.012,inactive: -0.053
RGP1 (UniProt Q92546),inactive: 0.022,inactive: 0.129,inactive: 0.086,inactive: 0.201,inactive: -0.011,inactive: 0.257,inactive: -0.138,inactive: -0.049,inactive: 0.021,inactive: 0.132
REV3L (UniProt O60673),inactive: 0.081,inactive: -0.176,inactive: 0.024,inactive: -0.064,inactive: -0.031,inactive: -0.013,inactive: 0.144,inactive: 0.051,inactive: 0.118,inactive: 0.045

# Single records, from the list above. Order of values: log2 fold change (erlotinib) | log2 fold change [1] | log2 fold change [2] | log2 fold change [3] | log2 fold change [4] | log2 fold change [5] | log2 fold change [6] | log2 fold change [7] | log2 fold change [8] | log2 fold change (IRAK-1-4 Inhibitor I)
# RCSD1 (UniProt Q6JBY9) as listed: inactive: -0.005 | inactive: -0.024 | inactive: 0.04 | inactive: -0.035 | inactive: -0.024 | inactive: 0.027 | inactive: 0.02 | inactive: -0.002 | inactive: 0.002 | inactive: 0.007
# RBBP6 (UniProt Q7Z6E9) as listed: inactive: 0 | inactive: -0.109 | inactive: 0.005 | inactive: -0.02 | inactive: -0.016 | inactive: -0.016 | inactive: 0.037 | inactive: 0.059 | inactive: 0.006 | inactive: -0.009
